From article PMC12448072

How the values were obtained:
[1] = biological target: T1, PILS6-GFP (PIN-LIKES 6, GFP-tagged) (A. thaliana) (UniProt Q9LZN2); test: co-IP; stable A. thaliana transgenics expressing PILS6-GFP; α-GFP IP, immunoblot with GFP and HRD1 antibodies
T1 sequence: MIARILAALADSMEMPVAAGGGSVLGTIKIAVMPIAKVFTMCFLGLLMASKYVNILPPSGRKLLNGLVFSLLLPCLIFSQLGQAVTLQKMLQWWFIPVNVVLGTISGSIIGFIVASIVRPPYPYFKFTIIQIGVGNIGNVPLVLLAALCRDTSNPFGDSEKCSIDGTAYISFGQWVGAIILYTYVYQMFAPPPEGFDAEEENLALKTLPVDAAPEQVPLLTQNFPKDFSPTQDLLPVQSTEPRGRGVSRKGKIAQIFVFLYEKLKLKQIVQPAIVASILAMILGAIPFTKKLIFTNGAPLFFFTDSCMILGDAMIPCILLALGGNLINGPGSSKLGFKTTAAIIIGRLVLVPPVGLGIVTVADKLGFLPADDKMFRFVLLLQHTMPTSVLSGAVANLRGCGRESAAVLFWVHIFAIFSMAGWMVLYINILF

PILS3-GFP (A. thaliana) = biological target: T2, PILS3-GFP (A. thaliana) (UniProt Q9C9K5); test: co-IP; PILS3-GFP coexpressed with mScarlet-tagged ERAD components transiently in N. benthamiana; α-RFP or α-GFP IPs, immunoblot with RFP or GFP antibodies
T2 sequence: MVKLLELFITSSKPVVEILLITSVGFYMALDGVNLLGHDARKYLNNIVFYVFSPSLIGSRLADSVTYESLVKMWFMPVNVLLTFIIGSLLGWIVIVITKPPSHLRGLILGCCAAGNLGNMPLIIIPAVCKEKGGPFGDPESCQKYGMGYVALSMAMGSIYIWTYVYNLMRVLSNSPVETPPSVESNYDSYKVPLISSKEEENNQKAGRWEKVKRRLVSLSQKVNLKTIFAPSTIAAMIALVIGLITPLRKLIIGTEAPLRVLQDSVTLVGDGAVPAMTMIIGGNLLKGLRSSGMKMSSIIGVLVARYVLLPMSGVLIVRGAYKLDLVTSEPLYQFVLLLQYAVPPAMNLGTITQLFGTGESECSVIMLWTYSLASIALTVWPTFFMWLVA

| binding [1] | binding (PILS3-GFP (A. thaliana)) | Substance |
| --- | --- | --- |
| binds |  | HRD1 (endogenous HRD1A/B, as recognised by the HRD1 antibody) (A. thaliana (endogenous in A. thaliana)) |
|  | binds | PAWH1-mScarlet (A. thaliana) |
|  | binds | PAWH2-mScarlet (A. thaliana) |

No constants are given. Whether binding was seen depends on the method and setting. In cells and extracts the contact can be indirect. A result given as binding can be weak or reduced; the word gives no strength. Where a sequence is shown, tags or fusion partners need not be part of it.
